Source: PubChem BioAssay AID504784 (Drosophila RNAi Screening Center, 2011)

Aim: 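Search for regulators of lipid droplet storage in oleate-fed fly cells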 (primary screen)
System: Drosophila Kc167 embryonic cells
Reagent: long dsRNA against Drosophila genes, about 250 ng dsRNA per well
Duration: 4 days
Treatment: cells fed 400 µM oleic acid bound to BSA
Detection: 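Cells imaged and segmented; ratio of lipid droplet area to nuclear area, log-transformed, then normalised as a B-score over the screen; higher means more stored lipid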
Scale: droplet/nuclear area B-score: higher = more stored lipid (overstorage)
In all, the deposit lists about 17,000 reagents; below is a random part of those that have a named target and a result. 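Each column is one replicate's B-score; the combined score over replicates was not deposited, so single values may mislead.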 Reagents against one gene are numbered here. Names joined by + are all predicted targets of the reagent. Not all columns of the deposit are shown.

Eig71Ed (GeneID 39704)
- droplet/nuclear area B-score, replicate 1: -0.00664

GckIII (GeneID 42064)
- droplet/nuclear area B-score, replicate 1: -0.0415

RIC-3 (GeneID 37384) #1
- droplet/nuclear area B-score, replicate 1: -0.0881

RIC-3 (GeneID 37384) #2
- droplet/nuclear area B-score, replicate 1: 0.978

fra (GeneID 36377)
- droplet/nuclear area B-score, replicate 1: 0.396

CG10802 (GeneID 31318)
- droplet/nuclear area B-score, replicate 1: -0.255

Tdrd3 (GeneID 39612)
- droplet/nuclear area B-score, replicate 1: -0.911

ppk31 (GeneID 318575)
- droplet/nuclear area B-score, replicate 1: -0.163

GATAd (GeneID 34395)
- droplet/nuclear area B-score, replicate 1: 0.41

CG11560 (GeneID 39376)
- droplet/nuclear area B-score, replicate 1: -0.675

Mur82C (GeneID 40574) #1
- droplet/nuclear area B-score, replicate 1: 1.17

Mur82C (GeneID 40574) #2
- droplet/nuclear area B-score, replicate 1: 0.641

mtSSB (GeneID 41968)
- droplet/nuclear area B-score, replicate 1: -0.337

CG11089 + CG31381 #1
- droplet/nuclear area B-score, replicate 1: -0.819

CG11089 + CG31381 #2
- droplet/nuclear area B-score, replicate 1: 0.0428

TwdlR (GeneID 318586)
- droplet/nuclear area B-score, replicate 1: -0.843

Psf3 (GeneID 31967) #1
- droplet/nuclear area B-score, replicate 1: -0.565

Psf3 (GeneID 31967) #2
- droplet/nuclear area B-score, replicate 1: 0.0956

Eip63F-1 (GeneID 47878)
- droplet/nuclear area B-score, replicate 1: -0.076

CG2854 (GeneID 31219)
- droplet/nuclear area B-score, replicate 1: 1.85

CG13930 (GeneID 38210)
- droplet/nuclear area B-score, replicate 1: -1.27

Ir75a (GeneID 39982)
- droplet/nuclear area B-score, replicate 1: 0.343

CG12682 (GeneID 31415)
- droplet/nuclear area B-score, replicate 1: 0.322

CG4872 (GeneID 32676)
- droplet/nuclear area B-score, replicate 1: -2.17

CG33281 (GeneID 2768938)
- droplet/nuclear area B-score, replicate 1: -0.025

CG14974 (GeneID 50167)
- droplet/nuclear area B-score, replicate 1: -0.431

CG2201 (GeneID 35417)
- droplet/nuclear area B-score, replicate 1: -2.77

CG4597 (GeneID 38604)
- droplet/nuclear area B-score, replicate 1: -0.805

CG15332 (GeneID 31714)
- droplet/nuclear area B-score, replicate 1: -1.84

acj6 (GeneID 47080)
- droplet/nuclear area B-score, replicate 1: -2.03

CG15253 (GeneID 34916)
- droplet/nuclear area B-score, replicate 1: 0.402

CG14877 (GeneID 41929)
- droplet/nuclear area B-score, replicate 1: -0.468

CG13086 (GeneID 35208)
- droplet/nuclear area B-score, replicate 1: 0.365

Rcc1 (GeneID 38669)
- droplet/nuclear area B-score, replicate 1: -0.0263

mle (GeneID 35523)
- droplet/nuclear area B-score, replicate 1: -0.0843

Cyp6t2Psi (GeneID 3772355)
- droplet/nuclear area B-score, replicate 1: 1.87

hwt (GeneID 32202)
- droplet/nuclear area B-score, replicate 1: -1.46

ovm + CG31975
- droplet/nuclear area B-score, replicate 1: -0.75

sPLA2 (GeneID 35665)
- droplet/nuclear area B-score, replicate 1: -0.322

nero (GeneID 43740)
- droplet/nuclear area B-score, replicate 1: -0.157

Trs23 (GeneID 34197)
- droplet/nuclear area B-score, replicate 1: 3.99

Swim (GeneID 37537)
- droplet/nuclear area B-score, replicate 1: -2.66

Psc (GeneID 36431)
- droplet/nuclear area B-score, replicate 1: 1.26

boly (GeneID 35809)
- droplet/nuclear area B-score, replicate 1: -1.77

Pcl (GeneID 37069)
- droplet/nuclear area B-score, replicate 1: -2.04

CG13931 (GeneID 38212)
- droplet/nuclear area B-score, replicate 1: -0.824

CG9643 (GeneID 33504)
- droplet/nuclear area B-score, replicate 1: -1.02

CG17625 (GeneID 42678)
- droplet/nuclear area B-score, replicate 1: 0.154

l(2)09851 (GeneID 46662)
- droplet/nuclear area B-score, replicate 1: 0.0813

CG3527 (GeneID 31387)
- droplet/nuclear area B-score, replicate 1: -1.19

Ir7a (GeneID 31686)
- droplet/nuclear area B-score, replicate 1: -0.144
